Some results were stated once for a whole list of compounds, not compound by compound.
Columns and labels:
[1] = target: T1, KIF5B-RET (Homo sapiens, UniProt P07949); assay: Inhibitory activity against RET gene fusion KIF5B-RET; format: biochemical; conditions: read-out: median inhibitory activity (IC50) against KIF5B-RET
T1 sequence (P07949 713-1114): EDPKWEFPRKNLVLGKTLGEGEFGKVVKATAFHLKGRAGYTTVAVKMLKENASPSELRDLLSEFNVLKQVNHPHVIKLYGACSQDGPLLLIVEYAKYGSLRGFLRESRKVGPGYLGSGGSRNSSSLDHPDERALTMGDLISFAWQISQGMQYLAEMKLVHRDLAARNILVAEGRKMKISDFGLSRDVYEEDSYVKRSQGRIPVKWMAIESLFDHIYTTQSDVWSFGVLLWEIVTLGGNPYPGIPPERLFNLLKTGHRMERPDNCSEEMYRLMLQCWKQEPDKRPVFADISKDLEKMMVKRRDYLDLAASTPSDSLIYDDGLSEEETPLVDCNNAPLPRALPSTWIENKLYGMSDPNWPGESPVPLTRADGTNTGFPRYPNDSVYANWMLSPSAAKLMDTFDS
T1 sequence (P33176 1-575 partner): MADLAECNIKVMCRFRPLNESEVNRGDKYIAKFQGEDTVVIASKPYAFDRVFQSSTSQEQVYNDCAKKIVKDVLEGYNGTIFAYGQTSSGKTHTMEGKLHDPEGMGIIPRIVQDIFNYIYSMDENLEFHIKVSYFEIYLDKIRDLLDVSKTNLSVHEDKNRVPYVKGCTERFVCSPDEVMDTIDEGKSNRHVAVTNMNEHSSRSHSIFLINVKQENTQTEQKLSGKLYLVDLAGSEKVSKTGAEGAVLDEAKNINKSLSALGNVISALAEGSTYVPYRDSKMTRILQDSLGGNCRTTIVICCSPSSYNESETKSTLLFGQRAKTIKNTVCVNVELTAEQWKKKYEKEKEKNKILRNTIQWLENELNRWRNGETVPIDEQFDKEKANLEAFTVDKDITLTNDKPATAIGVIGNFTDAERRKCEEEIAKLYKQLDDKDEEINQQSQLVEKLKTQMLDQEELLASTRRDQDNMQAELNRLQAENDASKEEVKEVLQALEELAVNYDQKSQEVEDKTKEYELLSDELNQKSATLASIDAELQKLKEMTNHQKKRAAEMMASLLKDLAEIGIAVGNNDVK

[2] = target: T2, RET M804L (Homo sapiens, UniProt P07949, V804L); assay: Inhibitory activity against RET kinase mutant RET M804L; format: biochemical; conditions: read-out: median inhibitory activity (IC50) against RET M804L
T2 sequence (P07949 658-1114 V804L): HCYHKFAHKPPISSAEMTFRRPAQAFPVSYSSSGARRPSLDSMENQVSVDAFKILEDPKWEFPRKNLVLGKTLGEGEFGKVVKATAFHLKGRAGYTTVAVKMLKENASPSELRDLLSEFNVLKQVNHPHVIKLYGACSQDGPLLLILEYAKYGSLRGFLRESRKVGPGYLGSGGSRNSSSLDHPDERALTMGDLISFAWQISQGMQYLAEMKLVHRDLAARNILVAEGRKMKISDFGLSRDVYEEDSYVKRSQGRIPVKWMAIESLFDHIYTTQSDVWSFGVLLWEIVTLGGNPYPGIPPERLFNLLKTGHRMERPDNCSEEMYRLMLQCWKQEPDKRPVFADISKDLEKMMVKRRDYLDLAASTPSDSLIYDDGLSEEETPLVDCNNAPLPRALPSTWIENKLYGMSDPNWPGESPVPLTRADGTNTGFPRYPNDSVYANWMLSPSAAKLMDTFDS

Row | Compound | IC50 [1] [nM] | IC50 [2] [nM]
1 | CCNc1cc(-c2ccc(N3CC4CC(C3)N4Cc3ccc(-n4cc(F)cn4)nc3)nc2)c2c(C#N)cnn2c1 [Compound 52, 6-(ethylamino)-4-(6-(6-((6-(4-fluoro-1H-pyrazol-1-yl)pyridin-3-yl)methyl)-3,6-diazabicyclo[3.1.1]heptan-3-yl)pyridin-3-yl)pyrazolo[1,5-a]pyridine-3-carbonitrile] | < 5 | < 5
2 | CCNc1cc(-c2cnc(N3CC4CC(C3)N4Cc3ccc(OC)nc3)cn2)c2c(C#N)cnn2c1 [Compound 29, 6-(ethylamino)-4-(5-(-6-((6-methoxypyridin-3-yl)methyl)-3,6-diazabicyclo[3.1.1]heptane-3-yl)pyrazin-2-yl)pyrazolo[1,5-a]pyridine-3-carbonitrile] | < 5 | < 5

From patent US20230219979A1, “PYRAZOLO[1,5-a]PYRIDINE COMPOUND, PREPARATION METHOD THEREFOR AND USE THEREOF” (SHENZHEN ZHONGGE BIOLOGICAL TECHNOLOGY CO., LTD., priority 2019, published 2023)
